# Measured values reported in paper PMC3145648.
# These are yes or no findings as the source states them, for the method shown. In cells and extracts the contact can be indirect. Some entries that bind do so weakly or less than the wild type. Where a sequence is shown, tags or fusion partners need not be part of it.
# Biological target: T1, MYC-HSP47 (mouse HSP47 with a MYC epitope before the RDEL sequence) (mouse) (UniProt P19324)
# T1 sequence: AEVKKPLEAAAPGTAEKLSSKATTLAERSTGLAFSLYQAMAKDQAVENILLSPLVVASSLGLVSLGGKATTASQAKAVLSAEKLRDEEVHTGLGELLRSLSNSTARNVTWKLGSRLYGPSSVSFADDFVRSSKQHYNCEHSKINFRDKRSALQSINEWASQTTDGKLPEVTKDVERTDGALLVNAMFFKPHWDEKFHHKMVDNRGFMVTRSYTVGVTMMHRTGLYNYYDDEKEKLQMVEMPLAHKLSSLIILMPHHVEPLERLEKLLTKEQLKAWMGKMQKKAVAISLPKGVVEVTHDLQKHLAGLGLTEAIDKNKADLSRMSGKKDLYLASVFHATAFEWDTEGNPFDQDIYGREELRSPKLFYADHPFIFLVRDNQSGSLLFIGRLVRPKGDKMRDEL
# Experiment: co-IP; lysates of HEK293T cells co-transfected with YFP-APP695 and MYC-HSP47; precipitated with anti-MYC antibodies and protein-G-sepharose overnight at 4°C, blotted with anti-GFP; lysis buffer 1% TritonX-100, 120 mM sodium chloride, 50 mM Tris-HCl pH 7.5
substance,measurement,value
YFP-tagged APP (YFP-APP695) (from UniProt P05067-4 18-695),binding,binds
